What was measured:
HFF cells = test: Cytotoxicity assay, Cell Counting Kit-8, HFF cells; details: selectivity index, HFF cells versus B. microti
Vero cells = test: Cytotoxicity assay, Cell Counting Kit-8, Vero cells; details: selectivity index, Vero cells versus B. microti

| Compound | SI HFF (HFF cells) | SI Vero (Vero cells) |
| --- | --- | --- |
| O=c1cc(-c2ccc(O)cc2)oc2cc(O)cc(O)c12 [Apigenin] | 15.70 | 27.88 |
| CC1=C(CSC(=S)N2CCCCC2)C(=O)c2ccccc2C1=O [PKM2 inhibitor] | 16.16 | 34.10 |
| Tannic acid | 51.35 | 74.61 |

From publication PMC8481833, “Kinetic Characterization and Inhibitor Screening of Pyruvate Kinase I From Babesia microti” (Frontiers in Microbiology, 2021)
